Reference: the supplement of paper PMC12819154, “High-throughput peptide-centric local stability assay extends protein–ligand identification to membrane proteins, tissues and bacteria” (Nature Structural & Molecular Biology, 2025)
The other results are listed elsewhere or left out. Most entries show no effect beyond the scatter of the controls.

Amino acid sequences for entries named in this document (tags omitted). A change or cut given only in a name is not applied to a line headed by its entry.
UniProt A6H8H2: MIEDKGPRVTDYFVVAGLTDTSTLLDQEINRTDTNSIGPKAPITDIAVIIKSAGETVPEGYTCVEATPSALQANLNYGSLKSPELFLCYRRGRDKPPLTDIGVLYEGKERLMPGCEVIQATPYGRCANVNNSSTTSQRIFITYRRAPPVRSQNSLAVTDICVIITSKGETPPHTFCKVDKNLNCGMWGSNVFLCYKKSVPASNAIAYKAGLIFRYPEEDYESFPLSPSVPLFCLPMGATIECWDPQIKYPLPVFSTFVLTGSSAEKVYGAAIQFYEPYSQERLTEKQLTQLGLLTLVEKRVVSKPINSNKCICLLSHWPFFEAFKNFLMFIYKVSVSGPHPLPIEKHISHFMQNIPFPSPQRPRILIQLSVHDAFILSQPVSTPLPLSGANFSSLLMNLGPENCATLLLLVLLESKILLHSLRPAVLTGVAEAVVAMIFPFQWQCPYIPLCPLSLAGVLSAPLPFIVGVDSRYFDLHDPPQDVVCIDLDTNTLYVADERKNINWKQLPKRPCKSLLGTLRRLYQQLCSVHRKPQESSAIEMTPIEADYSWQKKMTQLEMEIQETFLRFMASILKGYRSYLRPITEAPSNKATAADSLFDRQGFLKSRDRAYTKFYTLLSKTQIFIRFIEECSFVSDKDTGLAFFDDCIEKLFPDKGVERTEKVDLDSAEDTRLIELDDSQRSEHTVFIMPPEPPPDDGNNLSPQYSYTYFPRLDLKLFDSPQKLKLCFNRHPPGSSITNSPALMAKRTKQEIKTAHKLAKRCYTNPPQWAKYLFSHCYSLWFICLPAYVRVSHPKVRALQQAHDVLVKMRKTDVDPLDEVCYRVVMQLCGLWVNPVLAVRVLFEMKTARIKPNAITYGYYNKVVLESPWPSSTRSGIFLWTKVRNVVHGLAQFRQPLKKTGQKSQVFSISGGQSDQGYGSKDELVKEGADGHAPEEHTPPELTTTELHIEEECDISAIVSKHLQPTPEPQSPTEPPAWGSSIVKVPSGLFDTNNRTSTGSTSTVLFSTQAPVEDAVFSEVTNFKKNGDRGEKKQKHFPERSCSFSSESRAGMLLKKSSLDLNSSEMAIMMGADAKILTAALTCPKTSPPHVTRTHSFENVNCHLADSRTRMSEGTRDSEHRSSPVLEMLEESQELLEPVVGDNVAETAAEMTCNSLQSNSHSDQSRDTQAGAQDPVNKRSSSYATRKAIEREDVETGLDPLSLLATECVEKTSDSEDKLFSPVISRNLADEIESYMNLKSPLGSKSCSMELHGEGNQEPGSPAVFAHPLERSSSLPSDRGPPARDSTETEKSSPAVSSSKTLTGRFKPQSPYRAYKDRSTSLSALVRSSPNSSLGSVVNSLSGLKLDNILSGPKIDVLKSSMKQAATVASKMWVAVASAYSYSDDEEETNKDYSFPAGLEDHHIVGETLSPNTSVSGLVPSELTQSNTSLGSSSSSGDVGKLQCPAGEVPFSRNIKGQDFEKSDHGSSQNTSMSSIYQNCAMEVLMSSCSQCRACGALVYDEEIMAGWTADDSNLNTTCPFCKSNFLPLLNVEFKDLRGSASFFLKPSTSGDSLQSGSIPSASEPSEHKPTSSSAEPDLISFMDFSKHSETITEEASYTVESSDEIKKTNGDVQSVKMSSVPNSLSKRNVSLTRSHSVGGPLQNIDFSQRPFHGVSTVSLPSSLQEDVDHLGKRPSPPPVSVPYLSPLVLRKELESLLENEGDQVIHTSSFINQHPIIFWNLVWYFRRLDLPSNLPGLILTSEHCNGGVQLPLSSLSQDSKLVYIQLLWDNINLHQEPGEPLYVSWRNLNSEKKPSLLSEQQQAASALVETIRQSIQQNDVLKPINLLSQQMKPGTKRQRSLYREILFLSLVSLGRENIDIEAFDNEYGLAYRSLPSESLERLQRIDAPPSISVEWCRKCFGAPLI
UniProt A2AH22: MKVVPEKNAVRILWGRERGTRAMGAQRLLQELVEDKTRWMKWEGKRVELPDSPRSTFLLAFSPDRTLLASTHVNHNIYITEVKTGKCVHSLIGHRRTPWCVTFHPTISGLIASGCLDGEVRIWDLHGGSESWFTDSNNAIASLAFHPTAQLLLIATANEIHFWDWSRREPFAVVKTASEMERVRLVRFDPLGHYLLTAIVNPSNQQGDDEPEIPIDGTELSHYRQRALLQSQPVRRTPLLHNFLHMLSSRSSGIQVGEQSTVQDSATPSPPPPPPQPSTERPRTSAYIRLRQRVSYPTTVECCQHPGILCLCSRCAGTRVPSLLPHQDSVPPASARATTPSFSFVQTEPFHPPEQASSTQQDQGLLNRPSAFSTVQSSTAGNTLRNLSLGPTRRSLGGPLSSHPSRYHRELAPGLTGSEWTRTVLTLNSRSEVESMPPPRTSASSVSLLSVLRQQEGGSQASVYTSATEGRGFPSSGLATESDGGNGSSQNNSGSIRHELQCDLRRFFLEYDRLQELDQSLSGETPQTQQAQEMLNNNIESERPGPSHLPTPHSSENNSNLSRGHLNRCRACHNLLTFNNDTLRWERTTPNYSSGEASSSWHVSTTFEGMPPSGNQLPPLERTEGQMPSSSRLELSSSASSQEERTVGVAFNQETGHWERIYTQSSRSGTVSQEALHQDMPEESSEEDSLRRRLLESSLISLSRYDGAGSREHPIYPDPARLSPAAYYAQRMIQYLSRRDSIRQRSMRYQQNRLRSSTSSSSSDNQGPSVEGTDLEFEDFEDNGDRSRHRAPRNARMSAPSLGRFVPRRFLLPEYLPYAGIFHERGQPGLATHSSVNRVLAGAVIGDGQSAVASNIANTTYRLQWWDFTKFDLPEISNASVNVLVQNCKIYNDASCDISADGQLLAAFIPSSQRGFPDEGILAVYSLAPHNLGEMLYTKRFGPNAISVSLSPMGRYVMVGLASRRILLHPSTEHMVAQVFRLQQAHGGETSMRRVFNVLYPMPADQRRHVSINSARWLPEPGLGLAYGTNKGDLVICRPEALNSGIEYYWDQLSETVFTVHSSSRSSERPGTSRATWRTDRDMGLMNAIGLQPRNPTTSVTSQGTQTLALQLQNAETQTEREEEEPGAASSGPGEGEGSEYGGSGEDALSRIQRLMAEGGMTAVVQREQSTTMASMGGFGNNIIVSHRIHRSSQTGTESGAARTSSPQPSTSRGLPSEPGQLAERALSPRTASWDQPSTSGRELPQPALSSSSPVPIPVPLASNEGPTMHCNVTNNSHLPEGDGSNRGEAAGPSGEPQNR
UniProt B0V2N1: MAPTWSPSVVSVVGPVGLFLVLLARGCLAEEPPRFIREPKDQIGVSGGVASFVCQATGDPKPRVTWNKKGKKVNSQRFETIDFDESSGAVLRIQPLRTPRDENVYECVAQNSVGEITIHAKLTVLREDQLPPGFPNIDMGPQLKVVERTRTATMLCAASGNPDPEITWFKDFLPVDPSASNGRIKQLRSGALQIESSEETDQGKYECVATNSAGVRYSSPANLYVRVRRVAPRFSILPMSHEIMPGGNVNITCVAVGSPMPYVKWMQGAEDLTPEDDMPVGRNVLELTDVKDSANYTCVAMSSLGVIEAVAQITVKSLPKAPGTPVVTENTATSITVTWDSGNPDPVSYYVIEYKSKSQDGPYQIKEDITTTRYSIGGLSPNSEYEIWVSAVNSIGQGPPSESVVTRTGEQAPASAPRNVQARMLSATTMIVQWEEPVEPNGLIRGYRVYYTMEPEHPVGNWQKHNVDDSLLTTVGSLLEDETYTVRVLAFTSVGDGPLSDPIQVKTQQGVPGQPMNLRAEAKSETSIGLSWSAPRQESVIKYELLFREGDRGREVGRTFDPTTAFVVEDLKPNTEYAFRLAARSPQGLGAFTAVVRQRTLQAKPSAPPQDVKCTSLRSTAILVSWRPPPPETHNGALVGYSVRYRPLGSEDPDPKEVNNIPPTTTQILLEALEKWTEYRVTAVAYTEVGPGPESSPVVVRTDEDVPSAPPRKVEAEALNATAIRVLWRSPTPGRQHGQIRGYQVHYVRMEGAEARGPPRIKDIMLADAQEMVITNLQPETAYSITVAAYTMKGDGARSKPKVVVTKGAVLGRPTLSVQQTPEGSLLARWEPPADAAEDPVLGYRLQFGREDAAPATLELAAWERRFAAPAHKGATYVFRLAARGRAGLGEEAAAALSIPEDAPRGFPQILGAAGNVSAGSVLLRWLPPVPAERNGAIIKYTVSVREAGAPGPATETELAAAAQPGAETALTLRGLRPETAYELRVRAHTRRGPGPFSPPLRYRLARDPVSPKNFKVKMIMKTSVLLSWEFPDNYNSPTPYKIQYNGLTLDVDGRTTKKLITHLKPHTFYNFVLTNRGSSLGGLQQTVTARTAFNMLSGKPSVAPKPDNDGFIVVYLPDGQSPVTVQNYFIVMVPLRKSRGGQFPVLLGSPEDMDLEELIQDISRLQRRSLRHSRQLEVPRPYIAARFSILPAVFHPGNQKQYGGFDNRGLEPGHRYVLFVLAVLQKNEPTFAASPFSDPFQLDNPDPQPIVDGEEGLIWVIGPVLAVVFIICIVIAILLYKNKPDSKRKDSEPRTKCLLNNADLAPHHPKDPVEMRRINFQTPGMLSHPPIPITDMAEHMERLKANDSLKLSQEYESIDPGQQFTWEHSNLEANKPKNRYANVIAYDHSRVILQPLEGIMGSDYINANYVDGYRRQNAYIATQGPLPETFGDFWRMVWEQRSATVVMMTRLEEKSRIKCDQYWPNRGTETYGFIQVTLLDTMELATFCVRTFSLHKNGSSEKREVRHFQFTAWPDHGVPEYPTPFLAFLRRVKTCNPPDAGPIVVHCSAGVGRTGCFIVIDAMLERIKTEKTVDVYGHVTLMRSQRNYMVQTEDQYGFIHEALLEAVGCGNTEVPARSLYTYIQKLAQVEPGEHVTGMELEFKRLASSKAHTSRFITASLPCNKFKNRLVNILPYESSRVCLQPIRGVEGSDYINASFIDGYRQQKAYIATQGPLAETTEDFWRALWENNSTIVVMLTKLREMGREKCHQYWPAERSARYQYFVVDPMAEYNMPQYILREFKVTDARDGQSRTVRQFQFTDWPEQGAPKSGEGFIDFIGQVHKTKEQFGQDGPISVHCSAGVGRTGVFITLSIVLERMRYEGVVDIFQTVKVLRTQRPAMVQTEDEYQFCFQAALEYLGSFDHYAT
UniProt A2AWP8: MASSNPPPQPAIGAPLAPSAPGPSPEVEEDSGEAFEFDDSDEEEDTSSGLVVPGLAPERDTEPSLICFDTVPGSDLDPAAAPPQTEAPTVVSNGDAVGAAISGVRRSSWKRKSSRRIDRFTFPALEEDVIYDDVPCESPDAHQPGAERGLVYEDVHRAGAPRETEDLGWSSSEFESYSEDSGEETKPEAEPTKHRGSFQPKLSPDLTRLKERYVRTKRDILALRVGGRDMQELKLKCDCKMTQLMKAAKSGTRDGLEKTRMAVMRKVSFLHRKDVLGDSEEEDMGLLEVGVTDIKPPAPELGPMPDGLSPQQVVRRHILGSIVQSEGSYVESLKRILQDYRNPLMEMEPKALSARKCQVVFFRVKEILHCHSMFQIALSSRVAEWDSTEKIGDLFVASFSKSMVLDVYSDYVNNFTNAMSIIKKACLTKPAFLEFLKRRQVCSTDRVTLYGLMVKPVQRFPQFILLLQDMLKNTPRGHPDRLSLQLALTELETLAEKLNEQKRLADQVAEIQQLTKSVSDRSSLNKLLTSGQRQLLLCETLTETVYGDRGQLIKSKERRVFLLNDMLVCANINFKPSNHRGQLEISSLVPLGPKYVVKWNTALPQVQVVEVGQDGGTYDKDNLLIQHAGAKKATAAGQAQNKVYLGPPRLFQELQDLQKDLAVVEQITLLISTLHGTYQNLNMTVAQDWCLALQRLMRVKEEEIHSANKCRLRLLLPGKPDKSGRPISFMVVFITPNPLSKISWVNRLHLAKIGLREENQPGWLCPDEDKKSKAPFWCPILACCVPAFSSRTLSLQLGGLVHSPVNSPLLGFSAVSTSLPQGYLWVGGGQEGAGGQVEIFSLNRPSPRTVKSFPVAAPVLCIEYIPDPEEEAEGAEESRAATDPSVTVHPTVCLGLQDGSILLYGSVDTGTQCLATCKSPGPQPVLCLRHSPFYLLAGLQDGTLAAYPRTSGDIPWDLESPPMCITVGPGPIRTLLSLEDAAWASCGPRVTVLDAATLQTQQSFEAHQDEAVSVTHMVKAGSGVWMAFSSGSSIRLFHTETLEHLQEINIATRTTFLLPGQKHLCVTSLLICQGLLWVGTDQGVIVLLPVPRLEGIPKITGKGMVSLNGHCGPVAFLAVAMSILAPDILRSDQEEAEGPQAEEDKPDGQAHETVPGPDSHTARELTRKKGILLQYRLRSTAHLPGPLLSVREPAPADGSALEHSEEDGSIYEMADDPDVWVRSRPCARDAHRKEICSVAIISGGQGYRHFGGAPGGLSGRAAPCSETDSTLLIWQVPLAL
UniProt B1AXP6: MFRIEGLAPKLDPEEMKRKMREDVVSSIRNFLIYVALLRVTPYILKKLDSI

What follows are targets tested with CN[C@@H]1C[C@H]2O[C@@](C)([C@@H]1OC)n1c3ccccc3c3c4c(c5c6ccccc6n2c5c31)C(=O)NC4 [staurosporine] (assay: log2 fold change of tryptic peptide abundance, ligand vs vehicle (limited proteolysis) (log2 ratio); higher = more trypsin-susceptible (destabilized)). Conditions: ligand concentration: 20 uM; sample: mouse liver crude lysate; replicate design: treated separately.
For “UniProt A6H8H2 (peptide sequence: TSDSEDKLFSPVISR, peptide start residue: 1212)”, the log2 fold change was -0.278.
“UniProt A2APV2 (peptide sequence: AIHVFDLK, peptide start residue: 718)” gave a log2 fold change of 0.176.
Work on “UniProt A2AU37 (peptide sequence: TSGHLLLGVVR, peptide start residue: 55)” yielded a log2 fold change of 0.221.
“UniProt A1Y9I9 (peptide sequence: AQHQLNR, peptide start residue: 169)” gave a log2 fold change of 0.16.
Work on “UniProt A2AH22 (peptide sequence: TVGVAFNQETGHWER, peptide start residue: 646)” yielded a log2 fold change of -0.492.
For “UniProt A2AJT4 (peptide sequence: GNLSGNSHK, peptide start residue: 647)”, the log2 fold change was 0.778.
“UniProt B0V2N1 (peptide sequence: SGEGFIDFIGQVHK, peptide start residue: 1816)” gave a log2 fold change of -0.0253.
“A0A1W2P872 (peptide sequence: KRPLETPPEVVCTK, peptide start residue: 10), A0A1W2P872” gave a log2 fold change of -0.714.
“UniProt A3FIN4 (peptide sequence: RMSVIVR, peptide start residue: 546)” gave a log2 fold change of 0.0227.
With “UniProt A2A791 (peptide sequence: AVAPQQGLLDR, peptide start residue: 261)” the log2 fold change was 0.184.
Target “UniProt A6H5X4 (peptide sequence: SKACEWEER, peptide start residue: 268)” has a log2 fold change of 0.443.
Target “UniProt A1L314 (peptide sequence: SWIKDPQTNQWK, peptide start residue: 617)” has a log2 fold change of -0.16.
“UniProt A2A5R2 (peptide sequence: SHEMFVTAIK, peptide start residue: 431)” was tested, and the log2 fold change was 0.449.
Work on “UniProt A2AWP8 (peptide sequence: VSFLHRK, peptide start residue: 267)” yielded a log2 fold change of 0.657.
“UniProt B2RRE7 (peptide sequence: LQRPKEESSEDENEVSNILR, peptide start residue: 1009)” showed a log2 fold change of -0.558.
Work on “UniProt A8C756 (peptide sequence: LQLILNEIQPR, peptide start residue: 979)” yielded a log2 fold change of -0.102.
Work on “UniProt B2RRD7 (peptide sequence: LGEQMTQEAR, peptide start residue: 1128)” yielded a log2 fold change of -0.301.
With “UniProt A2AWR3 (peptide sequence: EIGHSSPPSVSPK, peptide start residue: 855)” the log2 fold change was -0.345.
Work on “UniProt A7RDN6 (peptide sequence: GGDIGGR, peptide start residue: 36)” yielded a log2 fold change of -0.0315.
Target “UniProt A2AI08 (peptide sequence: RSDFLQK, peptide start residue: 226)” has a log2 fold change of -0.848.
“A0A5F8MPU3 (peptide sequence: SPERPSDISLKK, peptide start residue: 1916), A0A5F8MPU3” gave a log2 fold change of -0.164.
“UniProt B1AZP2 (peptide sequence: SEQGTLTSSESHSEAIPK, peptide start residue: 644)” was tested, and the log2 fold change was 0.337.
“UniProt A3KMP2 (peptide sequence: SLRDCQAWK, peptide start residue: 2)” gave a log2 fold change of -0.491.
Target “UniProt B1AXP6 (peptide sequence: LDPEEMKR, peptide start residue: 11)” has a log2 fold change of 0.109.
For “UniProt A2ASS6 (peptide sequence: EPAAPPQVPEAPK, peptide start residue: 10224)”, the log2 fold change was 0.133.
Work on “UniProt A2AJK6 (peptide sequence: KCCNHPYLINGAEEK, peptide start residue: 1095)” yielded a log2 fold change of -0.667.
“UniProt A2CG63 (peptide sequence: KYNGLEEK, peptide start residue: 880)” gave a log2 fold change of -0.607.
Work on “UniProt A2AB59 (peptide sequence: SRDGSEYLIQHDSEAIISTWHK, peptide start residue: 565)” yielded a log2 fold change of -0.000886.
Target “A0A140LIF8 (peptide sequence: EIIQNVSR, peptide start residue: 55), A0A140LIF8” has a log2 fold change of -0.204.
In the case of “A0A338P6K9 (peptide sequence: NTSAPLTVLDATSDKTK, peptide start residue: 1297), A0A338P6K9”, the log2 fold change is reported as -0.365.
